For 4 substances, binding results are on record in paper PMC3524764.

By UniProt entry, the sequences of proteins in these tests, tags left out. Residues count along the entry.
UniProt O88704: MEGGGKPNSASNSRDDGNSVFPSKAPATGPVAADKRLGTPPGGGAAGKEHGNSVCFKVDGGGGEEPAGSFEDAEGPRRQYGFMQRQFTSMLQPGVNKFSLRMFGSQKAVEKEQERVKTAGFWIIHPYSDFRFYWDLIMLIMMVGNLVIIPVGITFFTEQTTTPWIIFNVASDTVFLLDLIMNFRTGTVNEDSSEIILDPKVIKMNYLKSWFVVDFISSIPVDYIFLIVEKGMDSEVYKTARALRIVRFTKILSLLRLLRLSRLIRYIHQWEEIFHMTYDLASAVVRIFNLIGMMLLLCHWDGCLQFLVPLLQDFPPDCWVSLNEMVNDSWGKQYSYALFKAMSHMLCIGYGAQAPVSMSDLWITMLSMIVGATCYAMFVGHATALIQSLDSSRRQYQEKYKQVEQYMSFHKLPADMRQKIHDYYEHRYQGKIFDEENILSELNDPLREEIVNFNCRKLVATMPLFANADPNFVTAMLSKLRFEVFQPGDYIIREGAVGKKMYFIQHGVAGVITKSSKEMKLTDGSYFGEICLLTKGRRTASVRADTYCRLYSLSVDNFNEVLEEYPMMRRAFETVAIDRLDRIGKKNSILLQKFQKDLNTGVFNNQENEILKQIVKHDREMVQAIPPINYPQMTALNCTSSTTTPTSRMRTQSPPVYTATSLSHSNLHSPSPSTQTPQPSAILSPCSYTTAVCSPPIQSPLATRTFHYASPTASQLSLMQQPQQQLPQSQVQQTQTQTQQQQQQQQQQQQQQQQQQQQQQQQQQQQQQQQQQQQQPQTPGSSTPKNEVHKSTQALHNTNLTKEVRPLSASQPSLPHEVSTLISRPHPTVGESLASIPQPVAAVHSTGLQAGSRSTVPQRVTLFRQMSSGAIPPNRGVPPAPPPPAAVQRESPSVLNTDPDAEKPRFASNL
UniProt P12023, residues 18-770: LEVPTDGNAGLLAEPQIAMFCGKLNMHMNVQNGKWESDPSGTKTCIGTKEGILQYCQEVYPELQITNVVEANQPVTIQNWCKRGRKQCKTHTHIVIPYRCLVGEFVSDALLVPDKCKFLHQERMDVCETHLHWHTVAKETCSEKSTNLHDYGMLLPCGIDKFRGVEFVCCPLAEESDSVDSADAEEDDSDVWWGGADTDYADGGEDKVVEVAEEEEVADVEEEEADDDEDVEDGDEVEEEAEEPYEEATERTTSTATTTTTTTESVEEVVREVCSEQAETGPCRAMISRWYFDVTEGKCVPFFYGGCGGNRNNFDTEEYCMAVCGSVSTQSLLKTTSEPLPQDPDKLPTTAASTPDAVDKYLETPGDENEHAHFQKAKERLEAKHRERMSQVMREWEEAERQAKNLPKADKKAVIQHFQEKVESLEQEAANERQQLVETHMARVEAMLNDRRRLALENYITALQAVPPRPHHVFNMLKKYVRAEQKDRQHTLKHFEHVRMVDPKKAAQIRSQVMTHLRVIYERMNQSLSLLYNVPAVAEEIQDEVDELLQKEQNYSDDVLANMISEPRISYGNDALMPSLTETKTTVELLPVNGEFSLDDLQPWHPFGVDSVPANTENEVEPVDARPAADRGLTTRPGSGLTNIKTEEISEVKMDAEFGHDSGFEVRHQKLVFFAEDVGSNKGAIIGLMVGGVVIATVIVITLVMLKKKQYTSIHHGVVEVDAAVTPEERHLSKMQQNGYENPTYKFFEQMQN

These are yes or no findings as the source states them, for the method shown. Binding seen in cells or lysates may run through a third protein. Some results given as binding are weak or reduced against the parent protein; the word gives no strength.

The target of assay [1] is murine HCN1, transiently overexpressed in N2a cells (mouse) (UniProt O88704). The assay is described as follows: co-IP; N2a cells transiently transfected with an APP construct and pCI-murine HCN1, lysed in PBS with 1.0% Triton X-100; precipitated with anti-FLAG M2, anti-hAPP extracellular domain (LN27) or anti-HCN1 antibody, 4°C 2 h, Dynabeads Protein G; immunoblot; also with or without 10 μM ZD7288 (Figure S5, no influence on the interaction).

For assay [2], the target named is HCN1 (hyperpolarization-activated cyclic nucleotide gated channel 1), endogenous in mouse brain (mouse (endogenous in mouse brain)) (UniProt O88704). Briefly: co-IP; lysate of the EC-rich cortex region (from five mice) of HCN1+/+ and HCN1-/- mice in HBS-T lysis buffer; precipitated with anti-HCN1 antibody, 4°C 2 h, Dynabeads Protein G; immunoblot.
For assay [3] the target is unchanged. The assay is described as follows: co-IP; lysate of the cortex of wild type mice (13 weeks old in Figure 3I-K) in HBS-T lysis buffer (10 mM HEPES pH 7.6, 150 mM NaCl, 5 mM EDTA, 0.5% Triton X-100); precipitated with anti-HCN1, anti-X11 or anti-X11L/Mint2 antibody, 4°C 2 h, Dynabeads Protein G; immunoblot; HCN1-/-, X11-/- or X11L-/- mice as controls.
The target in assay [4] is FLAG-APP (FLAG-tagged human APP695) (human) (UniProt P05067). The assay is described as follows: co-IP; N2a cells transiently transfected with an APP construct and pCI-murine HCN1, lysed in PBS with 1.0% Triton X-100; precipitated with anti-FLAG M2, anti-hAPP extracellular domain (LN27) or anti-HCN1 antibody, 4°C 2 h, Dynabeads Protein G; immunoblot; also with or without 10 μM ZD7288 (Figure S5, no influence on the interaction).

As to “APPΔcyt (human APP695 lacking the cytoplasmic carboxyl terminal region) (from UniProt P05067-4 18-651) (domain or fragment)”, the binding entry in assay [1] is listed as “binds”.

As to “FLAG-APP (FLAG-tagged human APP695) (from UniProt P05067-4 18-695)”, in assay [1], the binding result is recorded as “binds”.

“amyloid-β precursor protein (APP), endogenous in mouse brain (from UniProt P12023 18-770)”: the binding result in assay [2] and in assay [3] was “binds” each time.

With “murine HCN1, transiently overexpressed in N2a cells (from UniProt O88704 1-910)”, the binding entry in assay [4] is reported as “binds”.
